Data: publication PMC7958565
These are yes or no findings as the source states them, for the method shown. Binding seen in cells or lysates may run through a third protein. Some entries that bind do so weakly or less than the wild type.

Chains of the proteins cited; added tags and fusions are not shown.
UniProt Q86WV6: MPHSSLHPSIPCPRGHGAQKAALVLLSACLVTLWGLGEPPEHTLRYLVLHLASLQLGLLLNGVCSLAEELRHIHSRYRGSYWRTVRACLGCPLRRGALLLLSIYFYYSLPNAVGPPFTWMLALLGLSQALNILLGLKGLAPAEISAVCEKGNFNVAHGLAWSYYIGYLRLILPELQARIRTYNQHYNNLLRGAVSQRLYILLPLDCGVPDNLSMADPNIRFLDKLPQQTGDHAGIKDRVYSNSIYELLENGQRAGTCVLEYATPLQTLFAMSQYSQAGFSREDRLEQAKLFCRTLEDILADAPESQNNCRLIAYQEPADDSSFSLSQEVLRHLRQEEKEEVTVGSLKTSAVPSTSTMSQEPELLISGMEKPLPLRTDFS

How the values were obtained:
human STING-Flag (human) = human STING-Flag (human) (UniProt Q86WV6); test: co-IP
[1] = biological target: human STING-Flag (human), Q86WV6; test: co-IP; details: remark: other sources report otherwise

B1: endogenous IKKβ (enzyme, UniProt O14920 1-756)
chain: MSWSPSLTTQTCGAWEMKERLGTGGFGNVIRWHNQETGEQIAIKQCRQELSPRNRERWCLEIQIMRRLTHPNVVAARDVPEGMQNLAPNDLPLLAMEYCQGGDLRKYLNQFENCCGLREGAILTLLSDIASALRYLHENRIIHRDLKPENIVLQQGEQRLIHKIIDLGYAKELDQGSLCTSFVGTLQYLAPELLEQQKYTVTVDYWSFGTLAFECITGFRPFLPNWQPVQWHSKVRQKSEVDIVVSEDLNGTVKFSSSLPYPNNLNSVLAERLEKWLQLMLMWHPRQRGTDPTYGPNGCFKALDDILNLKLVHILNMVTGTIHTYPVTEDESLQSLKARIQQDTGIPEEDQELLQEAGLALIPDKPATQCISDGKLNEGHTLDMDLVFLFDNSKITYETQISPRPQPESVSCILQEPKRNLAFFQLRKVWGQVWHSIQTLKEDCNRLQQGQRAAMMNLLRNNSCLSKMKNSMASMSQQLKAKLDFFKTSIQIDLEKYSEQTEFGITSDKLLLAWREMEQAVELCGRENEVKLLVERMMALQTDIVDLQRSPMGRKQGGTLDDLEEQARELYRRLREKPRDQRTEGDSQEMVRLLLQAIQSFEKKVRVIYTQLSKTVVCKQKALELLPKVEEVVSLMNEDEKTVVRLQEKRQKELWNLLKIACSKVRGPVSGSPDSMNASRLSQPGQLMSQPSTASNSLPEPAKKSEELVAEAHNLCTLLENAIQDTVREQDQSFTALDWSWLQTEEEEHSCLEQAS
Question: For B1, which binding (human STING-Flag (human)) is on record?
Answer: binds

B2: endogenous TBK1, Q9UHD2 1-729 (enzyme)
chain: MQSTSNHLWLLSDILGQGATANVFRGRHKKTGDLFAIKVFNNISFLRPVDVQMREFEVLKKLNHKNIVKLFAIEEETTTRHKVLIMEFCPCGSLYTVLEEPSNAYGLPESEFLIVLRDVVGGMNHLRENGIVHRDIKPGNIMRVIGEDGQSVYKLTDFGAARELEDDEQFVSLYGTEEYLHPDMYERAVLRKDHQKKYGATVDLWSIGVTFYHAATGSLPFRPFEGPRRNKEVMYKIITGKPSGAISGVQKAENGPIDWSGDMPVSCSLSRGLQVLLTPVLANILEADQEKCWGFDQFFAETSDILHRMVIHVFSLQQMTAHKIYIHSYNTATIFHELVYKQTKIISSNQELIYEGRRLVLEPGRLAQHFPKTTEENPIFVVSREPLNTIGLIYEKISLPKVHPRYDLDGDASMAKAITGVVCYACRIASTLLLYQELMRKGIRWLIELIKDDYNETVHKKTEVVITLDFCIRNIEKTVKVYEKLMKINLEAAELGEISDIHTKLLRLSSSQGTIETSLQDIDSRLSPGGSLADAWAHQEGTHPKDRNVEKLQVLLNCMTEIYYQFKKDKAERRLAYNEEQIHKFDKQKLYYHATKAMTHFTDECVKKYEAFLNKSEEWIRKMLHLRKQLLSLTNQCFDIEEEVSKYQEYTNELQETLPQKMFTASSGIKHTMTPIYPSSNTLVEMTLGMKKLKEEMEGVVKELAENNHILERFGSLTMDGGLRNVDCL
Question: How did the binding [1] turn out when B2 was run?
Answer: binds
